# From doi:10.1101/2023.12.12.571289
# Sequences of proteins named here, by UniProt entry; tags and fusion partners are left off. A change or cut given only in a name is not applied to a line headed by its entry. Residues count along the entry.
# UniProt Q16610, residues 20-540: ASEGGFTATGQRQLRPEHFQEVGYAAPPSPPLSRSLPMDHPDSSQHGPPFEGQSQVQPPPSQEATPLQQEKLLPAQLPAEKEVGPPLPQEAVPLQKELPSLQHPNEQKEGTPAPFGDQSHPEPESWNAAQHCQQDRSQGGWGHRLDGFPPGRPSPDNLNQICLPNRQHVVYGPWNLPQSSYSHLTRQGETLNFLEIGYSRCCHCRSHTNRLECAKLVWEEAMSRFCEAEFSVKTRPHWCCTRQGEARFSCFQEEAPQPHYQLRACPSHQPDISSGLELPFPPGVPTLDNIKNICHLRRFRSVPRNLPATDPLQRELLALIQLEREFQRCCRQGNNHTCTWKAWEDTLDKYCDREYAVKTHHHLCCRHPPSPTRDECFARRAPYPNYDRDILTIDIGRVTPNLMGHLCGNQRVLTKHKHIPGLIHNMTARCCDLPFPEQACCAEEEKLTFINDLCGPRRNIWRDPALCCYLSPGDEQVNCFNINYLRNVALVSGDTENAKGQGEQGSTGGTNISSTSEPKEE
# UniProt Q9UHI8: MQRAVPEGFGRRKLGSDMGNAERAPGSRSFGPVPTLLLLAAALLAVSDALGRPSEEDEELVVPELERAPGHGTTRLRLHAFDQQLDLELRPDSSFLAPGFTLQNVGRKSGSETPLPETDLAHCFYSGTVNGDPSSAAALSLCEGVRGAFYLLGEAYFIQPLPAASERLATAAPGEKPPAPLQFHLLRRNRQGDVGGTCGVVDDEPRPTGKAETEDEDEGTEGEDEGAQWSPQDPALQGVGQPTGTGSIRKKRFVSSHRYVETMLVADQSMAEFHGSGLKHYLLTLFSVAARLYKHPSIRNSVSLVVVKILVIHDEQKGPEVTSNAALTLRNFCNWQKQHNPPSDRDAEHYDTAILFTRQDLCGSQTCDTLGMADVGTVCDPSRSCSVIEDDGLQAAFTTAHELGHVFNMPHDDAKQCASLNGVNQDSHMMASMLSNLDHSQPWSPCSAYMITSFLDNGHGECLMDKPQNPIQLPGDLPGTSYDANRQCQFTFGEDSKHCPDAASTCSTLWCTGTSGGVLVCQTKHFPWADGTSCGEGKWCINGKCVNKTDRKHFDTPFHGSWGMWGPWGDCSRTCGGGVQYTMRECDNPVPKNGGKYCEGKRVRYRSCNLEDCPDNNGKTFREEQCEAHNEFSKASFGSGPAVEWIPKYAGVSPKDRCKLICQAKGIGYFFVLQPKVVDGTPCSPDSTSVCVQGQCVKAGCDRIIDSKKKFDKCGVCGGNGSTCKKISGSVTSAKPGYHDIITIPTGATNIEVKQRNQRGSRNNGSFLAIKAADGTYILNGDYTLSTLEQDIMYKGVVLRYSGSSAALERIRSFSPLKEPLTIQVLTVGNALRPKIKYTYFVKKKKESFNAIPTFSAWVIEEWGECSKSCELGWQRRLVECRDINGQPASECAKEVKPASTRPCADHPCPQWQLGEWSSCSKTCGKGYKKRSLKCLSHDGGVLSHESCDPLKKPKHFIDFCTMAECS
# UniProt P08253: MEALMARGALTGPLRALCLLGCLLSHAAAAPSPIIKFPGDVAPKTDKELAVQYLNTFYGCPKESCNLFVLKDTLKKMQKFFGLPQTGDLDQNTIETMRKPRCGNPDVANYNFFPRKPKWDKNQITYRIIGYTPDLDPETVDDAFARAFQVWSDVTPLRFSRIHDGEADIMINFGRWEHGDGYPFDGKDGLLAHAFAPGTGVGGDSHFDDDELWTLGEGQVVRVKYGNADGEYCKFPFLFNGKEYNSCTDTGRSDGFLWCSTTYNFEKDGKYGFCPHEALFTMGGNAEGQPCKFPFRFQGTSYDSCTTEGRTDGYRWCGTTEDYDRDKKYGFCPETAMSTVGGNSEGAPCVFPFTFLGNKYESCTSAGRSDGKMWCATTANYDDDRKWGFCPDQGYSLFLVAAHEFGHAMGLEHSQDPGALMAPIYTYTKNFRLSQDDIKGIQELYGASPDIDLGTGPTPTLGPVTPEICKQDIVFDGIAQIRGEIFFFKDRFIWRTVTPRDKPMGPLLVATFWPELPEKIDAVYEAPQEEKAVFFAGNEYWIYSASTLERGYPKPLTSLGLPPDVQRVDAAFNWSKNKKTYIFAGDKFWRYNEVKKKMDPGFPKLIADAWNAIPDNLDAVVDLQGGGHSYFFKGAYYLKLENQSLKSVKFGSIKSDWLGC
# UniProt P14780: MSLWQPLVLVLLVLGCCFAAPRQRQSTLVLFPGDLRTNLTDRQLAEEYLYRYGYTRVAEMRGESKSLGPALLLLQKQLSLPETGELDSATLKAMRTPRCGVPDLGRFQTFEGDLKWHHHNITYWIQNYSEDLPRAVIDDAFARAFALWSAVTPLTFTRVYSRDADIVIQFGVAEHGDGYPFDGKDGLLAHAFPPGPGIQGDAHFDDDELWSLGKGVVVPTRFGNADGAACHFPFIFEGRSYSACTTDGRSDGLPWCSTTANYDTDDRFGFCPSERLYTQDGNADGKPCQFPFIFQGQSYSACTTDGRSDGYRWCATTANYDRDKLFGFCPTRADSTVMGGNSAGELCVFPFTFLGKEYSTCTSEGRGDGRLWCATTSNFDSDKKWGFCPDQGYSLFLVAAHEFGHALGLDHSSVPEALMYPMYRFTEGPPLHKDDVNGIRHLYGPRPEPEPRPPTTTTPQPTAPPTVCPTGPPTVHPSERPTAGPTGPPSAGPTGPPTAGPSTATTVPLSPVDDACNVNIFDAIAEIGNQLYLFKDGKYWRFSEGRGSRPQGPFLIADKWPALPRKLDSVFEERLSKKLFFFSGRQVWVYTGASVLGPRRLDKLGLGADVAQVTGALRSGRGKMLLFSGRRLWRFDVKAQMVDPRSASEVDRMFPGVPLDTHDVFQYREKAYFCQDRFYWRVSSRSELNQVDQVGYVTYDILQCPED
# Biological target: recombinant ECM1 (rECM1) (UniProt Q16610)
# Experiment: pull-down
row,binding,Substance
1,binds,recombinant ADAMTS1 (from UniProt Q9UHI8) (enzyme)
2,binds,recombinant MMP-2 (from UniProt P08253) (enzyme)
3,binds,recombinant MMP-9 (from UniProt P14780) (enzyme)

# Results are given in words; binding and its absence hold for the method and conditions named. A result given as binding can be weak or reduced; the word gives no strength.
